# Measured values reported in PMC2904376.
# Amino acid sequences for entries named in this document (tags omitted). Residues count along the entry.
# low-density lipoprotein receptor-related protein-1 (LRP-1) α-chain (human (endogenous in FTC133)) (Q07954, residues 20-3943): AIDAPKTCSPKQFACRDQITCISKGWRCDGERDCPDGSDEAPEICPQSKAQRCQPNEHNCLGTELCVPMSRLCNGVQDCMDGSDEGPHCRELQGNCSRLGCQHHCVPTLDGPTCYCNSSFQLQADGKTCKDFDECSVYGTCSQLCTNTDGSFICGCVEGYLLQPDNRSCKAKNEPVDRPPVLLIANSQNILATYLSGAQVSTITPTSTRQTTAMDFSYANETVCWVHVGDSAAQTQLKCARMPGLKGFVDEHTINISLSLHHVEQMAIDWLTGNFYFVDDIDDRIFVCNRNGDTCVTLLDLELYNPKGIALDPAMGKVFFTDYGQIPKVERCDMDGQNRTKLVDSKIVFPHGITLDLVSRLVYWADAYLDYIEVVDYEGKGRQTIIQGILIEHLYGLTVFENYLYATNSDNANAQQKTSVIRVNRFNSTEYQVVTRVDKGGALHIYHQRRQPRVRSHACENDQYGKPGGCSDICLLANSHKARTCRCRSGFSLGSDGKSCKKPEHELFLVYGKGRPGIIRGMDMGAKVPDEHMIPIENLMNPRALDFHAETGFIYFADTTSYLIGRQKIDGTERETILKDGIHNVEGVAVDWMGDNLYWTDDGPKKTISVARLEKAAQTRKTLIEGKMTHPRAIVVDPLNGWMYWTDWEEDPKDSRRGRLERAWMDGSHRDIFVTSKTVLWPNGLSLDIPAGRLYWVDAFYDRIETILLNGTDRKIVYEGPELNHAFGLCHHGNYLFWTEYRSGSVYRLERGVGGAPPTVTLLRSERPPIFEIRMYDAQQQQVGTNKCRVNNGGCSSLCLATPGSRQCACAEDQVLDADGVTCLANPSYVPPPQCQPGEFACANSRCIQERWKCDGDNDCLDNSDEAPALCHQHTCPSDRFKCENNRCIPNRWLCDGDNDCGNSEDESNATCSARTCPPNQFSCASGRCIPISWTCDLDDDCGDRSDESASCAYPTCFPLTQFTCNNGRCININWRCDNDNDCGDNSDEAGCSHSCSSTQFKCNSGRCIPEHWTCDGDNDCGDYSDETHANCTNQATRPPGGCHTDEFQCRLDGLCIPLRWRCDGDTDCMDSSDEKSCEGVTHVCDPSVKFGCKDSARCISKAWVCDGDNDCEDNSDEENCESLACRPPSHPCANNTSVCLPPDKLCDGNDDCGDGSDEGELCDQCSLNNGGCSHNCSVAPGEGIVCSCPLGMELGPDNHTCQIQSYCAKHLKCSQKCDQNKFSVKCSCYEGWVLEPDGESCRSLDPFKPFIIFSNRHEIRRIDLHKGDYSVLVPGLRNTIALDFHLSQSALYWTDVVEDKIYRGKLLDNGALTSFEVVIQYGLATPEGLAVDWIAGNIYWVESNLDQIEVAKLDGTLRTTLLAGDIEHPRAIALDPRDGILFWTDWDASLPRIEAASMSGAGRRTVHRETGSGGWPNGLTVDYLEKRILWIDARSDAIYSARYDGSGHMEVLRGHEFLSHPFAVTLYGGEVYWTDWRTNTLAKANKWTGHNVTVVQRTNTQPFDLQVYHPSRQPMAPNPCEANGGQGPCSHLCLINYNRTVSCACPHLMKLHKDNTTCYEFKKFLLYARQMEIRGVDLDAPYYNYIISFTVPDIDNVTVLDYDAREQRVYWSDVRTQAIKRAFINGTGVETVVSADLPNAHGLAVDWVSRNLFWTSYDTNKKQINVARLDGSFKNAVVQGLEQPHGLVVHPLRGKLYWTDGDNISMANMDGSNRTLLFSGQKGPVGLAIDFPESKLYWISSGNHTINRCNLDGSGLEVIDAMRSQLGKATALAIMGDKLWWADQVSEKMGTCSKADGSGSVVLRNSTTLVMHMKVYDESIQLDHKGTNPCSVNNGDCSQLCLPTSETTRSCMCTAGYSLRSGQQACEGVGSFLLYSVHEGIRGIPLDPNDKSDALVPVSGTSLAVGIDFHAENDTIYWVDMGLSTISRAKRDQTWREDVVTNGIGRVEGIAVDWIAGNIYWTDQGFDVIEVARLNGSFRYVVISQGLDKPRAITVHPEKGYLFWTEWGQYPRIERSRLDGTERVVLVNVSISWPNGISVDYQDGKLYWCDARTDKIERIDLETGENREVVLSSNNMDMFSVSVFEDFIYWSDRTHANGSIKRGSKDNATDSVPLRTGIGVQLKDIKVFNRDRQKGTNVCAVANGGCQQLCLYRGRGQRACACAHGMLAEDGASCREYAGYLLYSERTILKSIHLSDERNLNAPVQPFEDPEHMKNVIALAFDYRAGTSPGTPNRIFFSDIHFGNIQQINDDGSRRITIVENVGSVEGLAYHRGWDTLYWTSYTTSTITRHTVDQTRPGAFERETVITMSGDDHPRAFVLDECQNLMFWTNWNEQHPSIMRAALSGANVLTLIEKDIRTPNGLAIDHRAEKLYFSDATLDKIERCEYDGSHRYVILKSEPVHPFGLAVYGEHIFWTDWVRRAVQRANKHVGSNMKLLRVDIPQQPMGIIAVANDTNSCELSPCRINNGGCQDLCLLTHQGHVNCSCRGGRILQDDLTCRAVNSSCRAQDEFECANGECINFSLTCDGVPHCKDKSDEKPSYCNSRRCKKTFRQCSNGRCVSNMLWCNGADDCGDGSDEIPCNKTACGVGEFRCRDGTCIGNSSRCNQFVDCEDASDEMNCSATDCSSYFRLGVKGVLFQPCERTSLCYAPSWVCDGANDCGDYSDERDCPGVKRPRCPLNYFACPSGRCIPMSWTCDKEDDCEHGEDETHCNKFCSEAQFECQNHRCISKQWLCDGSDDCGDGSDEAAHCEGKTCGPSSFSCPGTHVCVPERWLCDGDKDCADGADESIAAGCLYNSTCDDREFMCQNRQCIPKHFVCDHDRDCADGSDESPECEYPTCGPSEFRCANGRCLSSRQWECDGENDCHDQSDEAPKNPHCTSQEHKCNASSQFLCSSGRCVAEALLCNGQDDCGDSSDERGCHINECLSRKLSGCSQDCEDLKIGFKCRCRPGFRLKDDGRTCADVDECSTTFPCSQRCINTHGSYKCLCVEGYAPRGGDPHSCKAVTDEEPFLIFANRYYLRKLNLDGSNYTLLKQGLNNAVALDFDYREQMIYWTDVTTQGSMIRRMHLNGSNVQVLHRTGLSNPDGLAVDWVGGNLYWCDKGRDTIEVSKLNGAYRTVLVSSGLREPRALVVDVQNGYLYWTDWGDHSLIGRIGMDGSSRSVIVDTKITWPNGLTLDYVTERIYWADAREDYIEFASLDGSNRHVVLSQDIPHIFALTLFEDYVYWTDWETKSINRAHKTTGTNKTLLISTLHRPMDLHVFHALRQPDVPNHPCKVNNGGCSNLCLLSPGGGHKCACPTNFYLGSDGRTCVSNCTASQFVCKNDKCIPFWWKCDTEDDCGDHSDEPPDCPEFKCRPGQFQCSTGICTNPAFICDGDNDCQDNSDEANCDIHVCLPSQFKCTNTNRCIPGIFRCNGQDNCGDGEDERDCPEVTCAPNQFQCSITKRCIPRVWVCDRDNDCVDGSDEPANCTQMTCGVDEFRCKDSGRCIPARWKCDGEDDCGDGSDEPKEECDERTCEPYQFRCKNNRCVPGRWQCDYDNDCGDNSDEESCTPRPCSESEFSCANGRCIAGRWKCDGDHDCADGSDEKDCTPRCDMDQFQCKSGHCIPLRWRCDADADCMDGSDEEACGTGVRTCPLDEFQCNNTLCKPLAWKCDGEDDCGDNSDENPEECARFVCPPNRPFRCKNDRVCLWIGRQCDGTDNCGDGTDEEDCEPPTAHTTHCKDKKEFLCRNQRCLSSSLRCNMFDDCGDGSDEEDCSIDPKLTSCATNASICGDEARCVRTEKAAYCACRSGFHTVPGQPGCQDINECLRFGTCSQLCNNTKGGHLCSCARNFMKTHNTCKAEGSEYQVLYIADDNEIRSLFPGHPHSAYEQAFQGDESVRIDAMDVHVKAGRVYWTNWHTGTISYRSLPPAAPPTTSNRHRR
# low-density lipoprotein receptor-related protein-1 (LRP-1) β-chain (human (endogenous in FTC133)) (Q07954, residues 3944-4544): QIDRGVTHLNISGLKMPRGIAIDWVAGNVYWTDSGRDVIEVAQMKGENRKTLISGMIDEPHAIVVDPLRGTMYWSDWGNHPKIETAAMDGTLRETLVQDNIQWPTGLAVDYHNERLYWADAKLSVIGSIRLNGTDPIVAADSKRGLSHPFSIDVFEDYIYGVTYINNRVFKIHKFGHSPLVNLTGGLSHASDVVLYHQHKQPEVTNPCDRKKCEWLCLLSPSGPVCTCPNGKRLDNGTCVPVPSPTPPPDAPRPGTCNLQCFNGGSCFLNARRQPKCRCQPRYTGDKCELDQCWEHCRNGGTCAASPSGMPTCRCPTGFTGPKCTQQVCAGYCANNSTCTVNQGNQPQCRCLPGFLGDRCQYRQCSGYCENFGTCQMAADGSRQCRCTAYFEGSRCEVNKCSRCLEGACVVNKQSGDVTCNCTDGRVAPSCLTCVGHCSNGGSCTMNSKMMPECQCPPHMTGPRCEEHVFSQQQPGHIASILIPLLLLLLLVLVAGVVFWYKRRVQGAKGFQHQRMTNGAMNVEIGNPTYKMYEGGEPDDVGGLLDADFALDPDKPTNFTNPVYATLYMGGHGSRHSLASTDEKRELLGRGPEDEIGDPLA
# UniProt P49023: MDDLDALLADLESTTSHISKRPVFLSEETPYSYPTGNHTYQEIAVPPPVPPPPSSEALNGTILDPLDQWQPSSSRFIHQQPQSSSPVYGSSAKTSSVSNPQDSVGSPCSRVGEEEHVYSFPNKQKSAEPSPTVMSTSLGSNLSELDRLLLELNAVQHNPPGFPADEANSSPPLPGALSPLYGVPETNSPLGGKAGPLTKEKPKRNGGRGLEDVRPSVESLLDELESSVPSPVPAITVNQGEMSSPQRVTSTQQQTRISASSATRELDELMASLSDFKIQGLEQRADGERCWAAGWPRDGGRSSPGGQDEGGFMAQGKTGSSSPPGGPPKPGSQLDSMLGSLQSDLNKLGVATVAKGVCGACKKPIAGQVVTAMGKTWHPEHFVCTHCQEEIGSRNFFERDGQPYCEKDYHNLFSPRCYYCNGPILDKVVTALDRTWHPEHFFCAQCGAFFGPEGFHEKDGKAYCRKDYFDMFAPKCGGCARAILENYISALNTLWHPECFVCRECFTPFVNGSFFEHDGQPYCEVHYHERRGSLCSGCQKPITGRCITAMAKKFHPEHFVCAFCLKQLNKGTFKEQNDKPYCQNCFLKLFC
# No constants are given. Whether binding was seen depends on the method and setting. In cells and extracts the contact can be indirect. Some results given as binding are weak or reduced against the parent protein; the word gives no strength.
# Columns and labels:
# [1] = target: low-density lipoprotein receptor-related protein-1 (LRP-1) α-chain (human (endogenous in FTC133)) (UniProt Q07954); test: co-IP; LRP-1-containing complexes precipitated with anti-LRP-1 α-chain antibody (8G1) and protein G-Sepharose from 500 µg FTC133 cell extract (10 mM Tris-HCl pH 7.4, 150 mM NaCl, 5 mM EDTA, 0.1% Triton X-100), 4°C; immunoblot; nonspecific IgGs as negative control
# [2] = target: low-density lipoprotein receptor-related protein-1 (LRP-1) β-chain (human (endogenous in FTC133)) (UniProt Q07954); test: as above
binding [1],binding [2],Substance
binds,–,low-density lipoprotein receptor-related protein-1 (LRP-1) β-chain (from UniProt Q07954 3944-4544)
–,binds,paxillin (from UniProt P49023 1-591)
